# Data: the supplement of paper PMC8728848
# This is one part of the list.
# B1: Thrombomodulin Extracellular (Mus musculus), P15306 (protein)
# chain: MLGIFFLGVLAPASLGLSALAKLQPTGSQCVEHECFALFQGPATFLDASQACQRLQGHLMTVRSSVAADVISLLLSQSSMDLGPWIGLQLPQGCDDPVHLGPLRGFQWVTGDNHTSYSRWARPNDQTAPLCGPLCVTVSTATEAAPGEPAWEEKPCETETQGFLCEFYFTASCRPLTVNTRDPEAAHISSTYNTPFGVSGADFQTLPVGSSAAVEPLGLELVCRAPPGTSEGHWAWEATGAWNCSVENGGCEYLCNRSTNEPRCLCPRDMDLQADGRSCARPVVQSCNELCEHFCVSNAEVPGSYSCMCETGYQLAADGHRCEDVDDCKQGPNPCPQLCVNTKGGFECFCYDGYELVDGECVELLDPCFGSNCEFQCQPVSPTDYRCICAPGFAPKPDEPHKCEMFCNETSCPADCDPNSPTVCECPEGFILDEGSVCTDIDECSQGECFTSECRNFPGSYECICGPDTALAGQISKDCDPIPVREDTKEEEGSGEPPVSPTPGSPTGPPSARPVHSGVLIGISIASLSLVVALLALLCHLRKKQGAARAELEYKCASSAKEVVLQHVRTDRTLQKF
# What was measured:
# Assay in all cases: glycan array binding signal (z-score within array); higher = stronger binding
# Conditions in all cases: glycan notation: IUPAC condensed, linker removed
# [1] = target: Gal(a1-3)Gal(b1-4)GlcNAc(b1-2)Man
# Method in brief: (§1)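 The Consortium for Functional Glycomics database supplied 3228 glycan arrays, of which those lacking an available protein sequence were dropped. The binding signal, a within-array Z-score, was averaged across arrays of the same protein sequence and across linkers. Negative scores can be read as non-binding.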
# [2] = target: Gal(a1-3)Gal(b1-4)GlcNAc(b1-2)Man(a1-3)[Gal(a1-3)Gal(b1-4)GlcNAc(b1-2)Man(a1-6)]Man(b1-4)GlcNAc(b1-4)GlcNAc
# Method in brief: as §1
# [3] = target: Gal(a1-3)Gal(b1-4)GlcNAc(b1-3)GalNAc
# Method in brief: as §1
# [4] = target: Gal(a1-3)Gal(b1-4)GlcNAc(b1-6)GalNAc
# Method in brief: as §1
# [5] = target: Gal(a1-3)Gal(b1-4)[Fuc(a1-3)]GlcNAc
# Method in brief: as §1
# [6] = target: Gal(a1-3)Gal(b1-4)[Fuc(a1-3)]GlcNAc(b1-2)Man(a1-3)[Gal(a1-3)Gal(b1-4)[Fuc(a1-3)]GlcNAc(b1-2)Man(a1-6)]Man(b1-4)GlcNAc(b1-4)GlcNAc
# Method in brief: as §1
# Gal(a1-3)GalNAc = target: Gal(a1-3)GalNAc
# Method in brief: as §1
# [7] = target: Gal(a1-3)[Gal(a1-4)]Gal(b1-4)GlcNAc
# Method in brief: as §1
# [8] = target: Gal(a1-4)Gal(b1-3)GlcNAc(b1-2)Man(a1-3)[Gal(a1-4)Gal(b1-3)GlcNAc(b1-2)Man(a1-6)]Man(b1-4)GlcNAc(b1-4)GlcNAc
# Method in brief: as §1
# Gal(a1-4)Gal(b1-4)Glc = target: Gal(a1-4)Gal(b1-4)Glc
# Method in brief: as §1
# Gal(a1-4)Gal(b1-4)GlcNAc = target: Gal(a1-4)Gal(b1-4)GlcNAc
# Method in brief: as §1
# [9] = target: Gal(a1-4)Gal(b1-4)GlcNAc(b1-2)Man(a1-3)[Gal(a1-4)Gal(b1-4)GlcNAc(b1-2)Man(a1-6)]Man(b1-4)GlcNAc(b1-4)GlcNAc
# Method in brief: as §1
# [10] = target: Gal(a1-4)Gal(b1-4)GlcNAc(b1-3)Gal(b1-4)Glc
# Method in brief: as §1
# Gal(a1-4)GlcNAc = target: Gal(a1-4)GlcNAc
# Method in brief: as §1
# Gal(a1-6)Glc = target: Gal(a1-6)Glc
# Method in brief: as §1
# Gal(b1-2)Gal = target: Gal(b1-2)Gal
# Method in brief: as §1
# Gal(b1-3)Gal = target: Gal(b1-3)Gal
# Method in brief: as §1
# Gal(b1-3)Gal(b1-4)GlcNAc = target: Gal(b1-3)Gal(b1-4)GlcNAc
# Method in brief: as §1
# Gal(b1-3)GalNAc = target: Gal(b1-3)GalNAc
# Method in brief: as §1
# [11] = target: Gal(b1-3)GalNAc(a1-3)[Fuc(a1-2)]Gal(b1-4)Glc
# Method in brief: as §1
# [12] = target: Gal(b1-3)GalNAc(a1-3)[Fuc(a1-2)]Gal(b1-4)GlcNAc
# Method in brief: as §1
# Gal(b1-3)GalNAc(b1-3)Gal = target: Gal(b1-3)GalNAc(b1-3)Gal
# Method in brief: as §1
# [13] = target: Gal(b1-3)GalNAc(b1-3)Gal(a1-4)Gal(b1-4)Glc
# Method in brief: as §1
# [14] = target: Gal(b1-3)GalNAc(b1-4)Gal(b1-4)Glc
# Method in brief: as §1
# [15] = target: Gal(b1-3)GalNAc(b1-4)[Neu5Ac(a2-3)]Gal(b1-4)Glc
# Method in brief: as §1
# Gal(b1-3)GlcNAc = target: Gal(b1-3)GlcNAc
# Method in brief: as §1
# [16] = target: Gal(b1-3)GlcNAc(a1-3)Gal(b1-4)GlcNAc
# Method in brief: as §1
# [17] = target: Gal(b1-3)GlcNAc(a1-6)Gal(b1-4)GlcNAc
# Method in brief: as §1
# Gal(b1-3)GlcNAc(b1-2)Man = target: Gal(b1-3)GlcNAc(b1-2)Man
# Method in brief: as §1
# [18] = target: Gal(b1-3)GlcNAc(b1-2)Man(a1-3)[Gal(b1-3)GlcNAc(b1-2)Man(a1-6)]Man(b1-4)GlcNAc(b1-4)GlcNAc
# Method in brief: as §1
binder,measurement,setting,value
B1,glycan array binding signal (z-score),[1],-2.66
same,glycan array binding signal (z-score),[2],-0.154
same,glycan array binding signal (z-score),[3],-1.21
same,glycan array binding signal (z-score),[4],-0.878
same,glycan array binding signal (z-score),[5],1.11
same,glycan array binding signal (z-score),[6],1.59
same,glycan array binding signal (z-score),Gal(a1-3)GalNAc,-0.939
same,glycan array binding signal (z-score),[7],-1.16
same,glycan array binding signal (z-score),[8],-0.918
same,glycan array binding signal (z-score),Gal(a1-4)Gal(b1-4)Glc,1.19
same,glycan array binding signal (z-score),Gal(a1-4)Gal(b1-4)GlcNAc,-0.239
same,glycan array binding signal (z-score),[9],1.73
same,glycan array binding signal (z-score),[10],-0.341
same,glycan array binding signal (z-score),Gal(a1-4)GlcNAc,-1.23
same,glycan array binding signal (z-score),Gal(a1-6)Glc,-1.17
same,glycan array binding signal (z-score),Gal(b1-2)Gal,1.03
same,glycan array binding signal (z-score),Gal(b1-3)Gal,-0.287
same,glycan array binding signal (z-score),Gal(b1-3)Gal(b1-4)GlcNAc,-0.77
same,glycan array binding signal (z-score),Gal(b1-3)GalNAc,-0.155
same,glycan array binding signal (z-score),[11],0.62
same,glycan array binding signal (z-score),[12],-1.05
same,glycan array binding signal (z-score),Gal(b1-3)GalNAc(b1-3)Gal,0.377
same,glycan array binding signal (z-score),[13],-0.43
same,glycan array binding signal (z-score),[14],0.354
same,glycan array binding signal (z-score),[15],-0.458
same,glycan array binding signal (z-score),Gal(b1-3)GlcNAc,-0.403
same,glycan array binding signal (z-score),[16],0.457
same,glycan array binding signal (z-score),[17],0.328
same,glycan array binding signal (z-score),Gal(b1-3)GlcNAc(b1-2)Man,-0.824
same,glycan array binding signal (z-score),[18],1.49

# Reformatted: results already given
binder	measurement	setting	value
B1	glycan array binding signal (z-score)	[7]	-1.16
same	glycan array binding signal (z-score)	[8]	-0.918
